Test results: PMC10218277
Results are given in words; binding and its absence hold for the method and conditions named. A result given as binding can be weak or reduced; the word gives no strength. For some assays here: In cells and extracts the contact can be indirect. For some assays here: Where a sequence is shown, tags or fusion partners need not be part of it. Values belong to the molecule of their own block, whether it stands above or below them.

What was measured:
[1] = molecular target: T1, cLUC-SlHY5 (tomato (Solanum lycopersicum)) (UniProt Q9SM50); experiment: split reporter; firefly luciferase complementation imaging (LCI); nLUC and cLUC fusions co-expressed in leaves of 6-week-old N. benthamiana by Agrobacterium GV3101 infiltration; imaged after 1 d darkness at 22 °C and 1 d 16-h light/8-h dark
T1 sequence: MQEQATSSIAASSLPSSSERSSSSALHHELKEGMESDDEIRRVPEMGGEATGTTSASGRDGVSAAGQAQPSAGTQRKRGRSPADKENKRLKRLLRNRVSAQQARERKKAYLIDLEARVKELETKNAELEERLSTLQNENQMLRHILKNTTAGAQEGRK

[2] = molecular target: SlAN2 (tomato (Solanum lycopersicum)); experiment: two-hybrid; CDSs in pGADT7 and pGBKT7, bait and prey vectors co-transformed into Y2Hgold; patched on SD/Ade/His/Leu/Trp plates with X-alpha-Gal, 28 °C, 3 days; which protein was bait is not told

binding [1]: binds
Molecule: SlBBX24-nLUC (tomato (Solanum lycopersicum))

binding [2]: binds
B1: SlHY5 (protein, UniProt Q9SM50 1-158)
chain: T1 sequence
